# Out of some 330,000 compounds screened, about 7,700 (2.3%) were called active. Inconclusive results, whose numbers are uncertain, are shown with a selection of clear calls. Calls follow the shape of the dose curve; as a rule, active = well fitted inhibition curve with a large enough effect; inconclusive = small, poorly fitted or top-dose-only effect, or effect the other way; inactive = flat fitted curve, though single readings scatter. Where the call is inconclusive, the potency comes from a doubtful curve fit.
# Assay: qHTS screen for small molecules that inhibit ELG1-dependent DNA repair in human embryonic kidney (HEK293T) cells expressing luciferase-tagged ELG1; also: nearly all actives have a fitted effect of over 55% in size
# Conditions: HEK293T ELG1-luciferase reporter, luminescence, 16 h, DNA damage induced by 5-fluorouridine; activity change, negative = inhibition: at 46.1 µM (top of the series)
# Procedure, shortened: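 HEK293T cells expressing luciferase-tagged ELG1 (2,000/well) received 5-Fluorouridine plus compound or DMSO for 16 hr at 37 °C. Luciferase was read by ONE-Glo luminescence after 30 min at room temperature.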
# % is scaled to controls: 0 for no effect and ±100 for the full control effect; potency is read from the fitted curve at half-maximal effect.
Compound,"activity change, negative = inhibition",Potency
N#C/C(=C(/O)CSc1ccccn1)c1nc2ccccc2s1,inactive: 14%,–
Cc1cccc(N2C(=O)CC(Sc3nnc(C)s3)C2=O)c1 (stereo not given),inactive: 11.1%,–
O=C(COC(=O)CCSc1ccccc1)Nc1ccccc1,inactive: 0%,–
O=C(C(Cc1ccccc1)n1cccc1)N1CCN(c2ccccc2)CC1 (stereo not given),–,"inconclusive: 16.4 µM [inhibitor, single point]"
Cc1ccc(S(=O)(=O)N2CCCCC2)cc1C(=O)N1CCCCCC1,inactive: -0.565%,–
COc1cc(C(=O)OCCNC(=O)c2ccncc2)cc(OC)c1OC,–,"inconclusive: 16.4 µM [inhibitor, single point]"
CN(CC(=O)NCCc1ccccc1)S(=O)(=O)c1cccs1,–,"inconclusive: 18.4 µM [activator, single point]"
CCCOc1ccc(-c2nnc(-c3ccncc3)o2)cc1,–,"inconclusive: 2.59 µM [activator, partial curve]"
CC(=O)c1ccc(-n2nnnc2SCC(=O)Nc2cccc(NC(=O)c3ccco3)c2)cc1,–,"inconclusive: 18.4 µM [inhibitor, partial curve, poor fit]"
S=c1[nH]nc(Cc2ccccc2)n1-c1ccc(Cl)cc1,inactive: 3.6%,–
CCOC(=O)C(=N/O)/C(C)=N/NC(=O)C(=O)Nc1cc(Cl)ccc1Cl,–,"inconclusive: 18.3 µM [inhibitor, single point]"
COc1ccccc1OC(C)C(=O)N1CCN(Cc2ccc3c(c2)OCO3)CC1 (stereo not given),inactive: 0.296%,–
O=C(c1cc(-c2ccc3c(c2)OCO3)on1)N1CCCCC1,–,"inconclusive: 0.82 µM [activator, full curve]"
COc1ccc(/C=C(/NC(=O)c2ccc([N+](=O)[O-])cc2)C(=O)NCCCN(C)C)cc1,inactive: 3.5%,–
COC(=O)[C@@]1(C)[C@H]2C(=O)N(C)C(=O)[C@H]2[C@H]2CN(C)C(=NC3CCCCC3)N21,inactive: 10.3%,–
CCCOP(=O)(c1ccc(N(C)C)cc1)C(Nc1ccccc1)c1ccc(N(C)C)cc1 (stereo not given),–,"inconclusive: 25.9 µM [activator, partial curve, poor fit]"
COc1cc(OC)c(NC(=O)CN(C)S(=O)(=O)c2ccc3[nH]c(=O)oc3c2)cc1Cl,inactive: 12.5%,–
N#Cc1cn(-c2ccccc2)nc1-c1ccco1,–,"inconclusive: 16.4 µM [activator, partial curve, poor fit]"
COc1ccc(N(CC(=O)NCCSc2ccc(C)cc2)S(=O)(=O)c2ccccc2)c(OC)c1,–,"inconclusive: 25.9 µM [inhibitor, partial curve]"
Cc1cc2[nH]c(=O)c(=O)[nH]c2cc1S(=O)(=O)NCc1ccc(Cl)cc1,inactive: -0.85%,–
CC(C)CCn1cnc2c(sc3nc4c(cc32)CSC(C)(C)C4)c1=O,–,"inconclusive: 1.3 µM [activator, full curve]"
CCN1C(=O)/C(=C/C=C2\N(CC)c3cc(S(=O)(=O)N(C)C)ccc3N2c2ccccc2)SC1=S,–,"inconclusive: 9.2 µM [inhibitor, partial curve, poor fit]"
CS(=O)(=O)N1CCC(C(=O)Nc2ccc(F)cc2F)CC1,–,"inconclusive: 23.1 µM [activator, partial curve, poor fit]"
C=CCn1c(SCc2nc3sc(C(=O)O)c(C)c3c(=O)[nH]2)nnc1-c1ccccc1,inactive: 11.2%,–

Compound,"activity change, negative = inhibition",Potency
FC(F)(F)c1cccc(N2CCN(C(=S)NCC3CCCO3)CC2)c1 (stereo not given),–,active: 20.6 µM
CC(C)(C)NC(=O)/C=C/c1ccc(C(F)(F)F)cc1,–,"inconclusive: 18.4 µM [activator, single point]"
CN1/C(=C/C(=O)c2nc(S(C)(=O)=O)ncc2Cl)C(C)(C)c2ccccc21,–,"inconclusive: 29.1 µM [inhibitor, single point]"
O=C(Cc1ccc(Cl)cc1)Nc1cc(S(=O)(=O)N2CCOCC2)ccc1N1CCCC1,inactive: -4.72%,–
O=C(Nc1ccccc1)Nc1ccc(C(=O)N2CCOCC2)cc1,–,"inconclusive: 16.4 µM [activator, partial curve]"
Cc1ccc(C(O)CSc2nnc(-c3ccc4ccccc4c3)n2C)cc1 (stereo not given),inactive: -14%,–
CC1CC(C)CN(C(=O)COC(=O)/C=C/c2cccc([N+](=O)[O-])c2)C1 (stereo not given),inactive: -8.31%,–
CCOC(=O)C(Cc1ccc(OC)c([N+](=O)[O-])c1)NC(=O)CCC(=O)Nc1ccc(C)cc1 (stereo not given),inconclusive: 37.7% [activator],–
CCC(C)NC(=O)c1cc2c(=O)n3ccccc3nc2s1 (stereo not given),–,"inconclusive: 29.1 µM [activator, single point]"
COC(=O)C1CCN(C(=O)CN2C(=O)c3ccccc3S2(=O)=O)CC1,–,"inconclusive: 11.6 µM [activator, partial curve, poor fit]"
Nc1ccc(-c2nnc(-c3ccc(-c4ccccc4)cc3)o2)cc1,–,"inconclusive: 16.4 µM [activator, partial curve]"
O=c1c(O)c(-c2ccc(O)cc2O)oc2cc(O)cc(O)c12,inactive: 3.07%,–
O=C(Nc1cnc2ccccc2c1)c1ccncc1,–,"inconclusive: 2.59 µM [activator, full curve]"
COc1ccc2[nH]c(C)c(CCN(Cc3cccs3)C(=S)Nc3ccccc3OC)c2c1,–,active: 13 µM
CC(C)COP(=O)(OCC(C)C)C(O)c1ccc(F)cc1 (stereo not given),inactive: -2.23%,–
COc1ccc2c(C#CCCO)c(-c3ccc(S(C)(=O)=O)cc3)sc2c1,inactive: -20.8%,–
CC(OC(=O)c1cc(-c2cccnc2)nc2ccccc12)C(=O)Nc1ccc2ccccc2c1 (stereo not given),–,active: 18.4 µM
CCC(C)[C@H](NC(=O)NCc1ccc(S(N)(=O)=O)cc1)C(=O)OC (stereo not given in full),inactive: -7%,–
CC(C)CN1C(=O)c2ccc(C(=O)Nc3ccccn3)cc2C1=O,–,"inconclusive: 23.1 µM [activator, partial curve]"
O=C(COC(=O)CCC(=O)c1cccs1)Nc1ccccc1C(F)(F)F,inactive: 1.64%,–
CN(C)c1ccc(C(CNC(=O)c2ccco2)N2CCCC2)cc1 (stereo not given),–,"inconclusive: 18.3 µM [activator, single point]"
CC1Cc2cc(S(=O)(=O)N3CCCC(C(=O)N4CCCCC4)C3)ccc2N1C(=O)C1CC1 (stereo not given),inactive: 5.75%,–
CCn1c(SCC(=O)Nc2ccc(-c3nc4ccc(C)cc4s3)cc2)nnc1-c1ccccc1,–,"inconclusive: 18.4 µM [activator, partial curve]"
COc1cccc(NC(=O)CSc2nc3ccccc3c(=O)n2CCCC(=O)NCC2CCCO2)c1 (stereo not given),–,"inconclusive: 23.1 µM [inhibitor, partial curve, poor fit]"

Compound,"activity change, negative = inhibition",Potency
CC(=O)Nc1cccc(N2C(=O)CCC2=O)c1,–,"inconclusive: 8.2 µM [activator, partial curve, poor fit]"
COc1cc(OC)c(C2N(c3ccc(Cl)cc3)C(=O)C3CCCN32)cc1OC (stereo not given),–,"inconclusive: 18.4 µM [inhibitor, partial curve, poor fit]"
CC(C)(C)OC(=O)NCCCCCNC(=O)c1[nH]cnc1C(=O)N[C@@H](CCCCNC(=O)OC(C)(C)C)C(=O)OC(C)(C)C,–,"inconclusive: 6.51 µM [inhibitor, partial curve]"
O=C(O)c1ccccc1C(=O)Nc1ccccn1,inactive: 7.66%,–
O=C(NCc1nnnn1-c1ccc(F)cc1)C1CC(=O)N(c2ccc(F)cc2)C1 (stereo not given),–,"inconclusive: 25.9 µM [activator, single point]"
Cc1ccc(N=Nc2c(N)nn(-c3ccccc3)c2N)cc1,–,"inconclusive: 8.2 µM [activator, partial curve]"
Cc1ccccc1C(=O)NC1CC2CCCC(C1)N2Cc1ccc(Cl)cc1 (stereo not given),inactive: -1.82%,–
Cc1ccc(OCC(=O)NCc2cccs2)cc1,–,"inconclusive: 16.4 µM [activator, single point]"
CC[n+]1c(-c2ccc(C)cc2)csc1Nc1c(C)n(C)n(-c2ccccc2)c1=O,–,"inconclusive: 25.9 µM [inhibitor, partial curve]"
COc1ccc(NC(=S)N(CCCN2CCOCC2)Cc2cn(C)c3ccccc23)cc1,inactive: -26.4%,–
CCc1sc(C(=O)N2CCc3cc(OC)c(OC)cc3C2CC(=O)O)cc1C (stereo not given),inactive: 9.88%,–
O=C(NCCO)c1cc2c([nH]c3ccccc32)c(-c2ccc(F)cc2)n1,–,"inconclusive: 29.1 µM [inhibitor, single point]"
Cn1ccnc1C(=O)c1cc(SCC(=O)NC2CC2)nc2ccccc12,–,"inconclusive: 23.1 µM [activator, partial curve]"
O=C(CN1CCC(n2nnc3cc(F)ccc32)CC1)Nc1ccc2c(c1)CCC2,–,"inconclusive: 23.1 µM [inhibitor, single point]"
O=C(N/N=C/c1ccc2ccccc2c1)c1ccc(COc2ccc3c(c2)CCC3)o1,–,"inconclusive: 7.31 µM [activator, partial curve]"
CCC(C)NC(=O)CNC(=O)c1nn(-c2ccc(OC)c(Cl)c2)c(=O)c2ccccc12 (stereo not given),–,"inconclusive: 18.3 µM [inhibitor, partial curve]"
CCOC(=O)C1=C(C)NC(C)=C(C(=O)OCC)C1C(=O)OCC(=O)c1ccc2c(c1)OCCO2,–,active: 2.91 µM
CC(C)C(=O)NC(=S)Nc1ccc(S(=O)(=O)N2CCCC2)cc1,inactive: -7.1%,–
CN(CCOc1ccc(Cl)cc1)c1ccc(S(=O)(=O)N2CCCCC2)cn1,–,"inconclusive: 29.1 µM [inhibitor, single point]"
CCn1c(SCC(=O)N2CCN(c3ccc(F)cc3)CC2)nnc1-c1ccncc1,–,"inconclusive: 9.2 µM [inhibitor, partial curve]"
COC(=O)c1[nH]c2ccc(C)cc2c1NC(=O)CN1CCc2cc(OC)c(OC)cc2C1,–,"inconclusive: 4.61 µM [inhibitor, partial curve, poor fit]"
CN(c1ncnc(N)c1[N+](=O)[O-])C1CCS(=O)(=O)C1 (stereo not given),–,"inconclusive: 7.3 µM [inhibitor, partial curve]"

# Molecules shown so far that contain a COOH group:
Compound,"activity change, negative = inhibition",Potency
C=CCn1c(SCc2nc3sc(C(=O)O)c(C)c3c(=O)[nH]2)nnc1-c1ccccc1,inactive: 11.2%,–
O=C(O)c1ccccc1C(=O)Nc1ccccn1,inactive: 7.66%,–
CCc1sc(C(=O)N2CCc3cc(OC)c(OC)cc3C2CC(=O)O)cc1C (stereo not given),inactive: 9.88%,–

# Source: PubChem BioAssay AID504467 (National Center for Advancing Translational Sciences (NCATS), 2011)
